{"source": "patent US7893199B2", "about": "“Peptides having neutrophil-stimulating activity” (National University Corporation Gunma University, priority 2006, dated 2011)", "note": "Some entries share one result that the patent states for a list of compounds. Where a SMILES comes first, the peptide text is derived from it. Where no end group is shown, it is not given here.", "data": [{"test_system": "HL-60 cells differentiated into the neutrophil-like cells", "assay": "β-hexosaminidase-secreting activity of neutrophil-like differentiated HL-60 cells", "format": "cell-based, human", "from_the_text": "(1) Culture of Cell and Differentiation Into Neutrophil-like Cell\nIn this time, the cells were subcultured at a cell density of 1.0×10^5 cells/ml to 1.5×10^6 cells/ml, the number of cells was counted using a microscope, and the state of the cells was also confirmed.\nThe HL-60 cells were differentiated into neutrophil-like cells by setting the cell density in the flask to about 1.0×10^6 cells/ml, adding dibutylyl-cAMP (db-cAMP) as a differentiation-inducing agent so as to have a final concentration of 500 μM, and incubating the cells in the presence of CO2 at 37° C. for 3 days.\n(2) Stimulation of Cell and Measurement of β-Hexosaminidase-secreting Activity\nThe cells were collected by centrifuging the suspension of the differentiated HL-60 cells (1,000 rpm, 5 minutes, 4° C.). After that, the following operation was repeated three times to wash the cells: Hepes buffered Hank's solution (HBHS) containing ice-cooled 0.1% BSA (1.2 mM CaCl2.2H2O, 5.4 mM KCl, 0.44 mM KH2PO4, 0.49 mM MgCl2.6H2O, 0.41 mM MgSO4.7H2O, 136.9 mM NaCl, 0.34 mM Na2HPO4, 10 mM Hepes, 4.2 mM NaHCO3, 5.5 mM D-glucose, pH 7.4) was added to the cells; the mixture was suspended by inversion; and the mixture was centrifuged again (1,000 rpm, 5 minutes, 4° C.). Subsequently, HBHS was added so that the mixture has a cell density of 5.6×10^6 cells/ml and suspended. Then, DNase I and cytochalasin B were each added so as to have a final concentration of 5 μg/ml, and the cell suspension was dispensed in an amount of 90 μl (5×10^5 cells) on ice. […] After the cell stimulation for 10 minutes, 100 μl of an ice-cooled stop solution (25 mM Tris, 123 mM NaCl, 2.7 mM KCl, pH 7.4) were added, and immediately, the mixture was centrifuged (5,000 rpm, 1 minute, 4° C.). 200 μl of the obtained supernatant were transferred to a new tube.\nThe amount of β-hexosaminidase released in the supernatant of the reaction solution was measured by an enzyme reaction using p-nitrophenyl-N-acetyl-μ-D-glucosaminide as a substrate (Non-patent Document 12). That is, the supernatant of the reaction solution was dispensed in an amount of 90 μl to a 96-well plate. 60 μl of a substrate solution (10 mM p-nitrophenyl-N-acetyl-μ-D-glucosaminide, 40 mM citrate, 70 mM Na2HPO4, pH 4.5) were added to each well, followed by incubation at 37° C. for 1 hour. After the reaction, 100 μl of a stop solution (0.4 M glycine, pH 10.7) were added to each well and a color of the released p-nitrophenol was developed. The color development was measured with a plate reader at adsorption at 405 nm (reference: 492 nm). The all amount of β-hexosaminidase contained in the cells was quantified by treating the cells with Triton X-100 having a final concentration of 0.05%. In addition, the amount of β-hexosaminidase secreted by stimulation of 10 μM fMLP was also measured, and the ratio of the secretion amount by stimulation with each peptide to the above sectretion amount by stimulation with fMLP.", "units": {"concentration at which significant β-hexosaminidase-secreting activity was exhibited": "nM"}, "values": [{"compound": "CC[C@H](C)[C@H](NC(=O)[C@H](CS)NC(=O)[C@H](CC(C)C)NC(=O)[C@H](CCC(N)=O)NC(=O)[C@@H]1CCCN1C(=O)[C@H](CO)NC(=O)[C@H](Cc1ccccc1)NC(=O)[C@H](Cc1c[nH]cn1)NC(=O)[C@H](C)NC(=O)[C@H](CCCNC(=N)N)NC(=O)[C@H](CC(C)C)NC(=O)[C@H](CS)NC(=O)[C@H](Cc1c[nH]cn1)NC(=O)[C@H](CCCNC(=N)N)NC(=O)CNC(=O)[C@@H](NC(=O)[C@H](Cc1c[nH]cn1)NC(=O)[C@H](CCCNC(=N)N)NC(=O)[C@H](CC(C)C)NC(=O)[C@H](CC(C)C)NC(=O)[C@H](CC(C)C)NC(=O)[C@H](C)NC(=O)[C@H](C)NC(=O)[C@@H](N)CCSC)C(C)C)C(=O)N[C@@H](CCCNC(=N)N)C(=O)N[C@@H](CC(N)=O)C(=O)N[C@@H](C)C(=O)N[C@H](C(=O)N1CCC[C@H]1C(=O)N[C@@H](CC(C)C)C(=O)O)C(C)C", "note": "[No. 023] (H-MAALLLRHVGRHCLRAHFSPQLCIRNAVPL-OH; N-terminus and C-terminus assumed)", "concentration at which significant β-hexosaminidase-secreting activity was exhibited": "≤ 100"}, {"compound": "MLWNLLALHQIGQRTISTASHRH [No. 019]", "concentration at which significant β-hexosaminidase-secreting activity was exhibited": "≤ 100"}, {"compound": "MFPLARNALSSLKIQSILQSMARH [No. 048]", "concentration at which significant β-hexosaminidase-secreting activity was exhibited": "≤ 100"}, {"compound": "MFPLVKSALNRLQVRSIQQTMARQ [No. 015]", "concentration at which significant β-hexosaminidase-secreting activity was exhibited": "≤ 100"}, {"compound": "MFRRPVLQVLRQFVRH [No. 037]", "concentration at which significant β-hexosaminidase-secreting activity was exhibited": "≤ 100"}]}]}
